Drawing on PMC11082164, this text covers binding for one molecule.

No constants are given. Whether binding was seen depends on the method and setting. Binding seen in cells or lysates may run through a third protein. These calls come from enrichment with a bait or labelling near it, and not all partners need be listed.

This assay has as its target GFP-BIN1 isoform 8 (human). The experiment in a line: affinity purification with mass spectrometry; GFP-Trap from HeLa cells transfected with GFP or GFP-BIN1; hits selected by Mascot score.

B1: dynamin 1 (endogenous, HeLa) (protein, UniProt Q05193 1-864)
chain: MGNRGMEDLIPLVNRLQDAFSAIGQNADLDLPQIAVVGGQSAGKSSVLENFVGRDFLPRGSGIVTRRPLVLQLVNATTEYAEFLHCKGKKFTDFEEVRLEIEAETDRVTGTNKGISPVPINLRVYSPHVLNLTLVDLPGMTKVPVGDQPPDIEFQIRDMLMQFVTKENCLILAVSPANSDLANSDALKVAKEVDPQGQRTIGVITKLDLMDEGTDARDVLENKLLPLRRGYIGVVNRSQKDIDGKKDITAALAAERKFFLSHPSYRHLADRMGTPYLQKVLNQQLTNHIRDTLPGLRNKLQSQLLSIEKEVEEYKNFRPDDPARKTKALLQMVQQFAVDFEKRIEGSGDQIDTYELSGGARINRIFHERFPFELVKMEFDEKELRREISYAIKNIHGIRTGLFTPDMAFETIVKKQVKKIREPCLKCVDMVISELISTVRQCTKKLQQYPRLREEMERIVTTHIREREGRTKEQVMLLIDIELAYMNTNHEDFIGFANAQQRSNQMNKKKTSGNQDEILVIRKGWLTINNIGIMKGGSKEYWFVLTAENLSWYKDDEEKEKKYMLSVDNLKLRDVEKGFMSSKHIFALFNTEQRNVYKDYRQLELACETQEEVDSWKASFLRAGVYPERVGDKEKASETEENGSDSFMHSMDPQLERQVETIRNLVDSYMAIVNKTVRDLMPKTIMHLMINNTKEFIFSELLANLYSCGDQNTLMEESAEQAQRRDEMLRMYHALKEALSIIGDINTTTVSTPMPPPVDDSWLQVQSVPAGRRSPTSSPTPQRRAPAVPPARPGSRGPAPGPPPAGSALGGAPPVPSRPGASPDPFGPPPQVPSRPNRAPPGVPSRSGQASPSRPESPRPPFDL
For B1, the binding result is on record as “binds”.
